Source: the M2OR odorant receptor database
The list shows a part of the results, in another mix than the full data. The calls were merged from several studies; some rest on single wells.

What was measured:
Conditions in all cases: stereoisomer not certain
OR10T2 (Homo sapiens) = target: T1, OR10T2 (Homo sapiens) (UniProt Q8NGX3)
T1 sequence (whole entry): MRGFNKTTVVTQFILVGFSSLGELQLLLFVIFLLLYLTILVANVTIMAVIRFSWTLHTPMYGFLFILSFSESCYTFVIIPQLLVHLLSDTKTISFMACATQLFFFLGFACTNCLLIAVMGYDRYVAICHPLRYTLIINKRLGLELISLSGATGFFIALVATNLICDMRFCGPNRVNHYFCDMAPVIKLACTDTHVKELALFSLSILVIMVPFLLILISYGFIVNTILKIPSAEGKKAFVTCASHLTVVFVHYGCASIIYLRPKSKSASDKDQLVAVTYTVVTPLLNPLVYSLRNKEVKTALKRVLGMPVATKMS
Procedure, shortened: (§1)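 Values were gathered from published papers (main text and supplementary material), with extra details requested from the original authors when needed, and checked for typos and inconsistencies. Each receptor–molecule pair is called responsive (active) if the original authors judged the measured signal statistically different from baseline, and non-responsive (inactive) otherwise. Assay methods varied by source, often transient mammalian cell-line luciferase assays. Recorded details include cell line, G-protein, co-transfected protein and tags.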

OR10X1 (Homo sapiens) = target: T2, OR10X1 (Homo sapiens) (UniProt Q8NGY0)
T2 sequence (whole entry): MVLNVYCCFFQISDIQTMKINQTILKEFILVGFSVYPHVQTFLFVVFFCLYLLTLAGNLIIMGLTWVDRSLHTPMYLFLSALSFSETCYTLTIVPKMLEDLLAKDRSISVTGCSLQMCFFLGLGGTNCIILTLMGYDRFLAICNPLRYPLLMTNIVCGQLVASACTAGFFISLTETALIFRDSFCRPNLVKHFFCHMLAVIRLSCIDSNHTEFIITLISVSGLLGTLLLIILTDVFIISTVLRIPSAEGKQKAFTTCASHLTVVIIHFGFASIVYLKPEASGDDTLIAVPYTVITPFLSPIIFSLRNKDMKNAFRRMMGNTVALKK
Procedure, shortened: as §1

OR10Z1 (Homo sapiens) = target: T3, OR10Z1 (Homo sapiens) (UniProt Q8NGY1)
T3 sequence (whole entry): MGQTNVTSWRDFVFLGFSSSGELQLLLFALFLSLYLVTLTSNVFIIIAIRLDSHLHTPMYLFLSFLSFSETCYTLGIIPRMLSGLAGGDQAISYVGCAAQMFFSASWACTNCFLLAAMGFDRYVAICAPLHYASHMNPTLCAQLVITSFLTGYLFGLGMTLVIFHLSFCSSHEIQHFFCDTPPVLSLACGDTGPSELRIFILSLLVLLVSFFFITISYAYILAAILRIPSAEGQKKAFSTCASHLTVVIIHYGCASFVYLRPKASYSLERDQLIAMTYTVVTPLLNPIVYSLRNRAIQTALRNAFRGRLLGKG
Procedure, shortened: as §1

OR11A1 (Homo sapiens) = target: T4, OR11A1 (Homo sapiens) (UniProt Q9GZK7)
T4 sequence (whole entry): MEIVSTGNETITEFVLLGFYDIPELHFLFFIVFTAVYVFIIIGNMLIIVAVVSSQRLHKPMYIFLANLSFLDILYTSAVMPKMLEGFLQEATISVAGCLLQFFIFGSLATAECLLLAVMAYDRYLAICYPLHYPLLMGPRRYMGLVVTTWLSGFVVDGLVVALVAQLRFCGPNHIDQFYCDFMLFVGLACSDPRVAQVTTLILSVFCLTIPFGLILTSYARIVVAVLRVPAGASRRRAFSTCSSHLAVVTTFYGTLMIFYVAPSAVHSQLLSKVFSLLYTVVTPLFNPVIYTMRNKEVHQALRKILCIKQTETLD
Procedure, shortened: as §1

OR11H4 (Homo sapiens) = target: T5, OR11H4 (Homo sapiens) (UniProt Q8NGC9)
T5 sequence (whole entry): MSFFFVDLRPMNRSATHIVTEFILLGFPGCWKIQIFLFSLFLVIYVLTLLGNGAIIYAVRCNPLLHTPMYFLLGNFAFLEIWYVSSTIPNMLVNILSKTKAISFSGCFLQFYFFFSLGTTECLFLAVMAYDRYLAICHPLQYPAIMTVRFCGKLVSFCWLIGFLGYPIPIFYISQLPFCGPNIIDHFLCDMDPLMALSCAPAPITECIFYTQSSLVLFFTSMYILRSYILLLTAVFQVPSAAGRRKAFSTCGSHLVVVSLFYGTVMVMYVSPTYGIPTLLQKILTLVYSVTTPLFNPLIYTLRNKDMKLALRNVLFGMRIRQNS
Procedure, shortened: as §1

OR11H6 (Homo sapiens) = target: T6, OR11H6 (Homo sapiens) (UniProt Q8NGC7)
T6 sequence (whole entry): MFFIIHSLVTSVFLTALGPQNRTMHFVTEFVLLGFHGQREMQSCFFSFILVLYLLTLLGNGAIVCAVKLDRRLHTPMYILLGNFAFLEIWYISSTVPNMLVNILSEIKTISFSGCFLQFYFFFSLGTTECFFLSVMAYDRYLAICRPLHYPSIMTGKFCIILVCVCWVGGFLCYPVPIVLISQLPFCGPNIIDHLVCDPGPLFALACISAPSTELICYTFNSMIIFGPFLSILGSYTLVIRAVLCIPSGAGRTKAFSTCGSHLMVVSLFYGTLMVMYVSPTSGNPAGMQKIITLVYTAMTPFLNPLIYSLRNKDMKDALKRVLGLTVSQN
Procedure, shortened: as §1

OR12D2 (Homo sapiens) = target: T7, OR12D2 (Homo sapiens) (UniProt P58182)
T7 sequence (whole entry): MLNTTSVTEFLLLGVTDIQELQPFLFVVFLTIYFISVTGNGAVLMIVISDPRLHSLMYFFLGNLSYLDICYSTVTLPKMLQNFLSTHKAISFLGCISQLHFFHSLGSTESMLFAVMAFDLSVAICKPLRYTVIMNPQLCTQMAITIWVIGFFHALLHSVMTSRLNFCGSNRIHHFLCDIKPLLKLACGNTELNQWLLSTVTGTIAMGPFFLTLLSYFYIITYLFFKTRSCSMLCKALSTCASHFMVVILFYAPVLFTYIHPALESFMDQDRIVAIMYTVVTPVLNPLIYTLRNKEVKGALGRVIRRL
Procedure, shortened: as §1

OR12D3 (Homo sapiens) = target: T8, OR12D3 (Homo sapiens) (UniProt Q9UGF7)
T8 sequence (whole entry): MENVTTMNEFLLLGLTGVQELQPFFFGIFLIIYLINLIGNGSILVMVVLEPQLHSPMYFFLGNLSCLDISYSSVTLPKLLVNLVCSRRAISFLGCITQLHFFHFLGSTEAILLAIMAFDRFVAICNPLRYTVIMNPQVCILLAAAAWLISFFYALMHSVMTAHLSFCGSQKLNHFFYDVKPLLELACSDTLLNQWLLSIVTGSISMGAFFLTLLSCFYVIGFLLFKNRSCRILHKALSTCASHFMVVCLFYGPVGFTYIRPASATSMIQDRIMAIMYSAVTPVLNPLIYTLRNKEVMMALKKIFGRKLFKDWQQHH
Procedure, shortened: as §1

OR13A1 (Homo sapiens) = target: T9, OR13A1 (Homo sapiens) (UniProt Q8NGR1)
T9 sequence (whole entry): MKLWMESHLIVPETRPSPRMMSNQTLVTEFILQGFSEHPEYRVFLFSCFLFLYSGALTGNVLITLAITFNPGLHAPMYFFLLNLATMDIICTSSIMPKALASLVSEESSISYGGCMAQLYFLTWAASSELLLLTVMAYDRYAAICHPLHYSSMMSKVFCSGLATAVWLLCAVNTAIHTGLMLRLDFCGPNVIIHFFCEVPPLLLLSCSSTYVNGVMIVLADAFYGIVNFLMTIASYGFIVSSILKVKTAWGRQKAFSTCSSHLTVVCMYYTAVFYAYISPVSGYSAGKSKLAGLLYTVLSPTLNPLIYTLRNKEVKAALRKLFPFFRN
Procedure, shortened: as §1

OR13C2 (Homo sapiens) = target: T10, OR13C2 (Homo sapiens) (UniProt Q8NGS9)
T10 sequence (whole entry): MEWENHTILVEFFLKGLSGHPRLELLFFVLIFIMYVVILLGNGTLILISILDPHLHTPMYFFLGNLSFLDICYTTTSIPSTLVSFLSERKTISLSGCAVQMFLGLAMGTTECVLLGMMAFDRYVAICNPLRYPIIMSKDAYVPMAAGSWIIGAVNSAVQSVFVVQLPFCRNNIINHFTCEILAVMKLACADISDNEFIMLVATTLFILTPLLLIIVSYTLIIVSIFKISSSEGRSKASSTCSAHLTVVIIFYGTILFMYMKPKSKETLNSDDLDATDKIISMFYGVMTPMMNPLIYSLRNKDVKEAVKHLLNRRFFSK
Procedure, shortened: as §1

Measured: odorant receptor agonist call

CS
inactive: OR10T2 (Homo sapiens) | OR10X1 (Homo sapiens) | OR10Z1 (Homo sapiens) | OR11A1 (Homo sapiens) | OR11H4 (Homo sapiens) | OR11H6 (Homo sapiens) | OR12D2 (Homo sapiens) | OR12D3 (Homo sapiens) | OR13A1 (Homo sapiens) | OR13C2 (Homo sapiens)

CCC(C)=O
inactive: OR10T2 (Homo sapiens) | OR10X1 (Homo sapiens) | OR10Z1 (Homo sapiens) | OR11A1 (Homo sapiens) | OR11H4 (Homo sapiens) | OR11H6 (Homo sapiens) | OR12D2 (Homo sapiens) | OR12D3 (Homo sapiens) | OR13A1 (Homo sapiens) | OR13C2 (Homo sapiens)

CCCCOC(C)=O
inactive: OR10T2 (Homo sapiens) | OR10X1 (Homo sapiens) | OR10Z1 (Homo sapiens) | OR11A1 (Homo sapiens) | OR11H4 (Homo sapiens) | OR11H6 (Homo sapiens) | OR12D2 (Homo sapiens) | OR12D3 (Homo sapiens) | OR13A1 (Homo sapiens) | OR13C2 (Homo sapiens)
